The values below come from PubChem BioAssay AID180 (DTP/NCI, 2004).

For this assay, the system named is BDF1 mice, Adenocarcinoma 755 s.c., tumor weight T/C. As to the kind of experiment: NCI In Vivo Anticancer Drug Screen. Data for tumor model Adenocarcinoma 755 (subcutaneous) in B6D2F1 (BDF1) mice. Conditions: T/C endpoint: mean tumor weight, higher T/C = larger tumour; for T/C: evaluated on day 12. In outline:
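Compound activity was tested in mice carrying transplanted tumors. Survival or tumor size was measured, and each value is the treated-group measurement divided by that of the vehicle-treated control group (T/C).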

Setting [1] is: dose: 50.0 mg/kg/injection, schedule: Q01DX011 (ip), vehicle: other.
The mark [2] stands for this setting: dose: 44.0 mg/kg/injection, schedule: Q01DX011 (ip), vehicle: methylcellulose (MC).

The list does not hold the whole screen: it is rich in T/C values a quarter to a half above the control, in often repeated tests (any T/C) and in doses without a T/C. Further doses and runs are listed elsewhere. T/C gives the treated animals as a percentage of the vehicle group. Schedules are NCI's codes, taken here to give the interval after Q, in days (D) or hours (H), and the number of doses after X. Some T/C values carry the count of animals alive at the toxicity check (mostly the fifth day); without a count, all were alive then. Some entries hold several experiments; the values are given in rising order. Some entries give survivors of the animals treated and no T/C: the source files T/C as zero there, which appears to mark a toxic dose or a test without result, not a measured value. Counts of survivors are from the toxicity check (mostly the fifth day) where no day follows; animals may have died later.

Take `Oc1ccc2ccccc2c1N=Nc1ccc(Cl)cc1`: the T/C under setting [1] is 25, 39, 75 % of control [9 of 10 alive]. In addition, the survivor count by setting is: under setting [1], 0 of 10; (dose: 100.0 mg/kg/injection, schedule: Q01DX011 (ip), vehicle: other) 0 of 10; (dose: 200.0 mg/kg/injection, schedule: Q01DX011 (ip), vehicle: other) 0 of 10; (dose: 400.0 mg/kg/injection, schedule: Q01DX011 (ip), vehicle: other) 0 of 10; (dose: 800.0 mg/kg/injection, schedule: Q01DX011 (ip), vehicle: other) 0 of 10; (dose: 1600.0 mg/kg/injection, schedule: Q01DX011 (ip), vehicle: other) 0 of 10.

With `CS(=O)(=O)OCCC(=O)NCCCCNC(=O)CCOS(C)(=O)=O`, the survivor count (dose: 450.0 mg/kg/injection, schedule: Q01DX011 (ip), vehicle: methylcellulose (MC)) was 6 of 10.

`CC(=O)OCC(=O)[C@@]1(O)CC[C@H]2[C@@H]3C[C@H](C)C4=CC(=O)C=C[C@]4(C)[C@@]3(F)[C@@H](O)C[C@@]21C`: the survivor count is, setting by setting: (dose: 18.0 mg/kg/injection, schedule: Q01DX011 (sc), vehicle: steroid suspending solution) 5 of 10; (dose: 40.0 mg/kg/injection, schedule: Q01DX011 (sc), vehicle: steroid suspending solution) 3 of 12; (dose: 80.0 mg/kg/injection, schedule: Q01DX011 (sc), vehicle: steroid suspending solution) 2 of 12; (dose: 150.0 mg/kg/injection, schedule: Q01DX011 (sc), vehicle: steroid suspending solution) 4 of 10.

Regarding `CCc1c(Cl)nc(N)nc1Nc1ccc(Cl)c(Cl)c1`, the T/C is 137 % of control (dose: 62.0 mg/kg/injection, schedule: Q01DX011 (ip), vehicle: methylcellulose (MC)) and 141 % of control (dose: 250.0 mg/kg/injection, schedule: Q01DX011 (ip), vehicle: methylcellulose (MC)). Besides, where the note is “dose: 125.0 mg/kg/injection, schedule: Q01DX011 (ip), vehicle: methylcellulose (MC)”, the survivor count is on record as 6 of 10.

Turning to `CSc1nc(N)c(NC=O)c(=O)n1C`, the survivor count (dose: 225.0 mg/kg/injection, schedule: Q01DX011 (ip), vehicle: saline) is listed as 6 of 10.

On to `Cn1c(=O)c2c(nc(N/N=C/c3ccccc3Br)n2C)n(C)c1=O`, for which, under “dose: 60.0 mg/kg/injection, schedule: Q01DX011 (ip), vehicle: carboxymethylcellulose (CMC)”, the survivor count was 5 of 10.

For `CN(C)c1nc(N(C)C)nc(N(C)C)n1`, the survivor count runs as follows: (dose: 20.0 mg/kg/injection, schedule: Q01DX011 (ip), vehicle: other) 5 of 10; (dose: 30.0 mg/kg/injection, schedule: Q01DX011 (ip), vehicle: other) 5 of 10; (dose: 35.0 mg/kg/injection, schedule: Q01DX011 (ip), vehicle: other) 3 of 10; (dose: 38.0 mg/kg/injection, schedule: Q01DX011 (ip), vehicle: other) 3 of 10 and 5 of 10; (dose: 43.5 mg/kg/injection, schedule: Q01DX011 (ip), vehicle: other) 5 of 10; (dose: 87.0 mg/kg/injection, schedule: Q01DX011 (ip), vehicle: other) 2 of 10. For the same compound, the survivor count (dose: 110.8 mg/kg/injection, schedule: Q01DX011 (ip), vehicle: carboxymethylcellulose (CMC)) is 1 of 10; the survivor count (dose: 125.0 mg/kg/injection, schedule: Q01DX011 (iv), vehicle: other) is on record as 5 of 12; the survivor count (dose: 250.0 mg/kg/injection, schedule: Q01DX011 (oral), vehicle: other) is on record as 4 of 12. The T/C (dose: 28.25 mg/kg/injection, schedule: Q01DX011 (ip), vehicle: other) is 126 % of control [9 of 10 alive] and the T/C (dose: 90.0 mg/kg/injection, schedule: Q01DX011 (iv), vehicle: other) is 132 % of control.

Take `O=C(OCC1OC(n2cnc3c(=O)[nH]cnc32)CC1OC(=O)c1ccccc1)c1ccccc1` (centres undefined): the T/C (dose: 30.0 mg/kg/injection, schedule: Q01DX011 (ip), vehicle: carboxymethylcellulose (CMC)) is 137 % of control and the T/C (dose: 240.0 mg/kg/injection, schedule: Q01DX011 (ip), vehicle: carboxymethylcellulose (CMC)) was 132 % of control.

Turning to `Cn1c2c(sc1=O)CCC2`, under setting [2], the T/C was 139 % of control. For the same compound, the survivor count under setting [2] is 1 of 10; the survivor count (dose: 88.0 mg/kg/injection, schedule: Q01DX011 (ip), vehicle: methylcellulose (MC)) is on record as 3 of 10; the survivor count (dose: 175.0 mg/kg/injection, schedule: Q01DX011 (ip), vehicle: methylcellulose (MC)) is 1 of 10; the survivor count (dose: 350.0 mg/kg/injection, schedule: Q01DX011 (ip), vehicle: methylcellulose (MC)) is 4 of 10 and 6 of 10.

Turning to `CCCOC(=O)C1(N)CCCC1`, the survivor count is reported as 5 of 10 (dose: 200.0 mg/kg/injection, schedule: Q01DX011 (ip), vehicle: carboxymethylcellulose (CMC)) and 2 of 10 (dose: 400.0 mg/kg/injection, schedule: Q01DX011 (ip), vehicle: carboxymethylcellulose (CMC)).

`C=CCSc1ncnc2c1ncn2C1OC(CO)C(O)C1O` (centres undefined): the survivor count is 4 of 10 and 5 of 10 (dose: 200.0 mg/kg/injection, schedule: Q01DX011 (ip), vehicle: saline); 0 of 10 (dose: 640.0 mg/kg/injection, schedule: Q01DX011 (ip), vehicle: saline).

With `CCOC(=O)CCCc1ccc(N=NN(C)CC(C)C)cc1`, where the note is “dose: 375.0 mg/kg/injection, schedule: Q01DX011 (ip), vehicle: carboxymethylcellulose (CMC)”, the survivor count is listed as 5 of 10.

As for `Cn1c(N)nc2nc[nH]c2c1=O`, the survivor count (dose: 4.6 mg/kg/injection, schedule: Q01DX011 (ip), vehicle: methylcellulose (MC)) is 6 of 10 and the survivor count (dose: 37.5 mg/kg/injection, schedule: Q01DX011 (ip), vehicle: methylcellulose (MC)) is 4 of 10.

For the compound `CC(C)CNS(=O)(=O)c1ncnc2nc[nH]c12`, the survivor count is 3 of 10 (dose: 75.0 mg/kg/injection, schedule: Q01DX011 (ip), vehicle: carboxymethylcellulose (CMC)); 0 of 10 (dose: 150.0 mg/kg/injection, schedule: Q01DX011 (ip), vehicle: carboxymethylcellulose (CMC)); 6 of 10 (dose: 150.0 mg/kg/injection, schedule: Q01DX011 (ip), vehicle: other).

In the case of `CC(=O)[C@@]1(O)CC[C@H]2[C@@H]3C[C@H](C)C4=CC(=O)CC[C@]4(C)[C@H]3[C@@H](O)C[C@@]21C`, the T/C reads like this: (dose: 112.0 mg/kg/injection, schedule: Q01DX011 (sc), vehicle: steroid suspending solution) 19 [11 of 12 alive], 34, 47, 48 % of control [9 of 10 alive]; (dose: 225.0 mg/kg/injection, schedule: Q01DX011 (sc), vehicle: steroid suspending solution) 9, 13 [9 of 10 alive], 29, 84 % of control. The survivor count was 5 of 10 and 7 of 12 (dose: 450.0 mg/kg/injection, schedule: Q01DX011 (sc), vehicle: steroid suspending solution); 5 of 12 (dose: 900.0 mg/kg/injection, schedule: Q01DX011 (sc), vehicle: steroid suspending solution).

As to `CN(C)c1ccc(/C=C\c2ccnc3ccccc23)cc1`, the T/C (dose: 50.0 mg/kg/injection, schedule: Q01DX011 (ip), vehicle: water) was 129 % of control. Moreover, the survivor count (dose: 200.0 mg/kg/injection, schedule: Q01DX011 (ip), vehicle: water) is 0 of 10.

Regarding `CC1CCCCN1/N=N/c1nc2c([nH]1)c(=O)n(C)c(=O)n2C` (centres undefined), for the setting “dose: 225.0 mg/kg/injection, schedule: Q01DX011 (ip), vehicle: methylcellulose (MC)”, the survivor count is recorded as 2 of 10.

With `CCCNc1ncnc2c1cnn2C1CCCCO1` (centres undefined), the survivor count (dose: 25.0 mg/kg/injection, schedule: Q01DX011 (ip), vehicle: methylcellulose (MC)) was 1 of 10.

For `C[C@]1(O)CC[C@H]2[C@@H]3CC[C@@H]4CC(=O)CC[C@]4(C)[C@@]3(F)C(=O)C[C@@]21C`, the T/C (dose: 25.0 mg/kg/injection, schedule: Q01DX011 (sc), vehicle: steroid suspending solution) was 129 % of control.
